Primary screen of a compound library

Sequences of proteins named here, by UniProt entry; tags and fusion partners are left off. Residues count along the entry.
UniProt P9WNZ1, whole entry: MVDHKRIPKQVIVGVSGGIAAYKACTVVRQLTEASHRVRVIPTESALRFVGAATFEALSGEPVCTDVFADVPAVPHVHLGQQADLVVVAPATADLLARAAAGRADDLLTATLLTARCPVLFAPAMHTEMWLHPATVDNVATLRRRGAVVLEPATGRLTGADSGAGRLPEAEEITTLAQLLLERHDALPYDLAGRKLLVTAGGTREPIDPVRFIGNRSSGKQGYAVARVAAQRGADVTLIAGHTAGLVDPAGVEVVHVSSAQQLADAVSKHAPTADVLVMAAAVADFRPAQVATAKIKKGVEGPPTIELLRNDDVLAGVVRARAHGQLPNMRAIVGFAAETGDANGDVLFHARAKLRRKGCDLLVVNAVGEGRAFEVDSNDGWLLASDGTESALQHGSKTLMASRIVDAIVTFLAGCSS
UniProt I6X8D2, whole entry: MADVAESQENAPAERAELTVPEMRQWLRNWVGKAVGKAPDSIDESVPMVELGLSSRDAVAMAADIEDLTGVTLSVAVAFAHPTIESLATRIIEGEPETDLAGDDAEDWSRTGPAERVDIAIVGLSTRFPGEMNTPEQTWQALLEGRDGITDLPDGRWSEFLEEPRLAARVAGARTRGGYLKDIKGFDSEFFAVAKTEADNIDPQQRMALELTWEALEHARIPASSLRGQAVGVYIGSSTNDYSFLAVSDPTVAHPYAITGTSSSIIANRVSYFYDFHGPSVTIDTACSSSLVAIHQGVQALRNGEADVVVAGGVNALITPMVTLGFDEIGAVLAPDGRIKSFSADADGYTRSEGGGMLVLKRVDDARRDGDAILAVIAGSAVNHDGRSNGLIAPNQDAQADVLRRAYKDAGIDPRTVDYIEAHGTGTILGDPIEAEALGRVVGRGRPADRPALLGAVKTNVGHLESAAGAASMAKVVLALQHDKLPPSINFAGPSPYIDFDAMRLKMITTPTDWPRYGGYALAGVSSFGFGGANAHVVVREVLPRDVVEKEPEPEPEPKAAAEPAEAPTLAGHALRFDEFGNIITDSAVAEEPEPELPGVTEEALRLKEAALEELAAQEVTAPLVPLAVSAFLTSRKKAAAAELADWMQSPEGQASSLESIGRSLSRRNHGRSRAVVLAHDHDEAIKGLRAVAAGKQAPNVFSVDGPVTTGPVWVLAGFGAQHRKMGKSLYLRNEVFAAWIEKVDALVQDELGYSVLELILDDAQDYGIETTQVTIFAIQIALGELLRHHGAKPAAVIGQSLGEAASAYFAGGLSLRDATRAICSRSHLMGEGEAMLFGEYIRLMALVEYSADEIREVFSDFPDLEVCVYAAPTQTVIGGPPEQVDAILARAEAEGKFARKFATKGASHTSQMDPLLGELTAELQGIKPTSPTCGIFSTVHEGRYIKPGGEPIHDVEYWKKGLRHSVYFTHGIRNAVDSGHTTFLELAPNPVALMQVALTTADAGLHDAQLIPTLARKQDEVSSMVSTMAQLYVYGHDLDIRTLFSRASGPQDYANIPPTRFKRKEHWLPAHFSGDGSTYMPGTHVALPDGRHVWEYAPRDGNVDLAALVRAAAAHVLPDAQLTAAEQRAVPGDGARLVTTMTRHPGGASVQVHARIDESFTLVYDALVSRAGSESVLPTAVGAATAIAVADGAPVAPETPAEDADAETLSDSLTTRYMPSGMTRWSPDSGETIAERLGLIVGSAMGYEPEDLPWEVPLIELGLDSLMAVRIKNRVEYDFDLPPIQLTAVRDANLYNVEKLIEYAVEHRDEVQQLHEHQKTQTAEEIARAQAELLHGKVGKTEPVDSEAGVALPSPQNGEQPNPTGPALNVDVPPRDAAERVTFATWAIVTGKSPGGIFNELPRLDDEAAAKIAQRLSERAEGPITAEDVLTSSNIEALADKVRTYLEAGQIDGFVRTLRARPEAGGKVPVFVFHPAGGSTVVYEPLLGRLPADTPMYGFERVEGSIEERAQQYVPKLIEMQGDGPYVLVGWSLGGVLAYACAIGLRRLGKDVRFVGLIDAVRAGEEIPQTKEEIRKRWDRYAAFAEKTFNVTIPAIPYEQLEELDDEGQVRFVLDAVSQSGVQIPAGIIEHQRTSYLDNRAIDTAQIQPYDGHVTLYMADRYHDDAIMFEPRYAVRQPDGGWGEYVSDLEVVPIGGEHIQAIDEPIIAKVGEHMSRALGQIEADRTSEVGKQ
UniProt P9WPC5, whole entry: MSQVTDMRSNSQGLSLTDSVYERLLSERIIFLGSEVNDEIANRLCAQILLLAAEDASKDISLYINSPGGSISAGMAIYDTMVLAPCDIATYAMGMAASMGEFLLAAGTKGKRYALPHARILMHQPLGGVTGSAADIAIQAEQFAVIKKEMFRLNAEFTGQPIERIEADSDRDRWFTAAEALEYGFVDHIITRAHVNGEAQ
UniProt P9WPC3, whole entry partner: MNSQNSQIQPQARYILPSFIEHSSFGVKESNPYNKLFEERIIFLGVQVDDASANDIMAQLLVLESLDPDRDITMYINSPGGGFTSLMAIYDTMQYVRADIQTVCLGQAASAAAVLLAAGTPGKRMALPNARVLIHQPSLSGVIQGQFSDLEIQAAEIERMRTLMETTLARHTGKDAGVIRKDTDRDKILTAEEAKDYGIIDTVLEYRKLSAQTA
UniProt A4I591, 1-473: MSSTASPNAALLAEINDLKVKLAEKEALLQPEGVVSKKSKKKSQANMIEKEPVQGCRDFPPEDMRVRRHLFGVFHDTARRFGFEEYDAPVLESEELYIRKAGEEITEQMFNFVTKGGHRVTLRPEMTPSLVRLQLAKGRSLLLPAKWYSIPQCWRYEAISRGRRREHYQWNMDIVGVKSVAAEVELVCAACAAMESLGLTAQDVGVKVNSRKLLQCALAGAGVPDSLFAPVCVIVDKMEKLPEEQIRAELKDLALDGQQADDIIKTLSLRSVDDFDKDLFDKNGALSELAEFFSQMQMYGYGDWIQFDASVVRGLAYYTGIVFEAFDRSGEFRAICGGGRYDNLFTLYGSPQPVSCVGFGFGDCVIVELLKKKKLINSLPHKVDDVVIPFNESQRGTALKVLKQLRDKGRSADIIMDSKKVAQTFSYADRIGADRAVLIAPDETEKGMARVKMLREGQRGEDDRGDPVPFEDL
UniProt P9WFT3, whole entry: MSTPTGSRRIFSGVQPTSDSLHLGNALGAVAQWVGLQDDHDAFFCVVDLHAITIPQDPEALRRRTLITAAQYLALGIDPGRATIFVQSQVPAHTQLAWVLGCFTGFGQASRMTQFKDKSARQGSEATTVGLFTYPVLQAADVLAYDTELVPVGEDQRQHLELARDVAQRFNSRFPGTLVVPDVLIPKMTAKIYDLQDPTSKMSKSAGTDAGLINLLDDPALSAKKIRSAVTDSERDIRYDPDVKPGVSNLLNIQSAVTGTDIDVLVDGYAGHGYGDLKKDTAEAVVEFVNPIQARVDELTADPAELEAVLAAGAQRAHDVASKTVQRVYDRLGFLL

CoaBC: 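Coenzyme A biosynthesis protein CoaBC, Mycobacterium tuberculosis (UniProt P9WNZ1). Enzyme assay of CoaBC with a phosphate dye (Biomol Green) read at 650 nm. Compounds at 30 µM. Higher reads as stronger inhibition, judged from the few compounds that gave an IC50. Most strong results did not repeat in a second test. Size under these conditions: about 67,000 compounds, about 40 of them at 50% or above in at least one test.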
Pks13 thioesterase: 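Polyketide synthase Pks13, Mycobacterium tuberculosis (UniProt I6X8D2). Enzyme assay of the thioesterase domain of polyketide synthase 13; the read-out is not stated. Compounds at 30 µM. Higher reads as stronger inhibition (inferred from which compounds were picked for retests). Size under these conditions: about 67,000 compounds, about 300 of them at 50% or above in at least one test.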
ClpP1P2: 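ClpP1P2, Mycobacterium tuberculosis (UniProt P9WPC5 and UniProt P9WPC3). Protease assay of ClpP1P2, read by the AMC dye that it sets free. Concentration: 50 µM. Higher reads as stronger inhibition, judged from the few compounds that gave an IC50. Most other retested compounds had strongly negative values. Of about 69,000 compounds tested this way, about 10 (0.015%) reached 50% or more in at least one test.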
Toxoplasma: 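Assay of Toxoplasma gondii numbers, read through their beta-galactosidase reporter with a colour substrate. Tested at 10 µM. Higher reads as fewer parasites (inferred from which compounds were picked for retests). Of about 67,000 compounds tested this way, about 260 (0.38%) reached 50% or more in at least one test.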
LiHisRS: 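Histidine-tRNA ligase, Leishmania infantum (UniProt A4I591). Enzyme assay of histidyl-tRNA synthetase; the read-out is not stated. Compounds at 30 µM. The record gives no direction; compounds that gave an IC50 in retests scored well above the rest, so higher reads as stronger inhibition. The assay is labelled LdHisRS but filed under L. infantum. Of about 69,000 compounds tested this way, about 410 (0.6%) reached 50% or more in at least one test.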
MtTrpRS: 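Enzyme assay of tryptophanyl-tRNA synthetase; the read-out is not stated. Target: Tryptophan-tRNA ligase, Mycobacterium tuberculosis (UniProt P9WFT3). Concentration: 10 µM. Higher most likely means stronger inhibition; the record gives no direction and few retests gave an IC50. Of about 65,000 compounds tested this way, about 64 (0.098%) reached 50% or more in at least one test.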

Each number is a percent effect as filed. The record does not define 0% and 100%; most values in the screen are far below 50% and negative numbers occur (in some assays of this library far below -100). This is an unselected part of the compounds tested. A dash means the value is not listed here; it may have been measured.

structure | CoaBC | Pks13 thioesterase | ClpP1P2 | Toxoplasma | LiHisRS | MtTrpRS
CC(C)CC(=O)N[C@H](C)c1c(-c2ccc(Cl)cc2)noc1C(=O)O | 14.67% | - | -2.467% | - | 25% | 2.033%
Cc1ccc(N2CCCN(C(=O)C(C)OCC3CC3)CC2)nn1 (stereo not shown) | -3.926% | 0.5995% | 0.3445% | -0.8348% | 2.74% | -5.202%
O=C(c1ccc(F)cc1)N1CCN2C[C@H](Oc3cccnc3)C[C@H]2C1 | -0.9677% | -31.05% | -0.4329% | - | 25% | -1.58%
Cc1nnc(C2CCN(c3ncccn3)CC2)o1 | 16.07% | 10.56% | -0.5963% | 8.38% | 11.35% | -2.026%
Cc1nc(C)n(CC2CCCN(Cc3cn4c(C)cccc4n3)C2)n1 (stereo not shown) | 3.655% | 0.08818% | -28% | -13.12% | 12.07% | 2.443%
Cc1nccn1-c1nccnc1C1CCCN(C)C1 (stereo not shown) | -25.91% | -0.4125% | -4.392% | 7.645% | 12.59% | -1.893%
CO[C@@H]1CC[C@H]2[C@H]1OCCN2Cc1ccccn1 | 2.335% | -3.877% | -3.953% | - | -6.195% | -1.759%
O=C(CNCC1(O)CCCN(Cc2cccc(F)c2F)C1=O)NC1CC1 (stereo not shown) | 2.621% | -6.942% | 8.068% | -18.07% | 12.12% | -4.238%
O=C(CCCN1CCCCC1)N1CCN(C(=O)c2nc[nH]n2)CC1 | 1.648% | -60.48% | -6.171% | -12.06% | 16.46% | 4.6%
O=C(NC1CCCCC1)N1CCC(N2Cc3ncccc3C2=O)CC1 | 0% | -11.05% | -5.54% | 2.003% | 10.64% | -0.06345%
Cc1n[nH]c(C2CN(C(=O)c3coc(Br)c3)CCO2)n1 (stereo not shown) | 2.927% | -19.93% | -18.58% | 13.63% | 8% | 2.107%
CCS(=O)(=O)N1CCC(c2nccn2Cc2ccncc2)CC1 | -8.678% | -19.38% | 2.363% | -1.361% | 10.67% | -7.64%
Cc1ccc(CN2CCc3c(nnn3C)C2COCc2ccccc2)s1.O=C(O)C(F)(F)F (stereo not shown) | - | - | - | 4.098% | - | -

Once more, the final 2:

| structure | CoaBC | Pks13 thioesterase | ClpP1P2 | Toxoplasma | LiHisRS | MtTrpRS |
|---|---|---|---|---|---|---|
| `CCS(=O)(=O)N1CCC(c2nccn2Cc2ccncc2)CC1` | -8.678% | -19.38% | 2.363% | -1.361% | 10.67% | -7.64% |
| `Cc1ccc(CN2CCc3c(nnn3C)C2COCc2ccccc2)s1.O=C(O)C(F)(F)F` (stereo not shown) | - | - | - | 4.098% | - | - |

From ChEMBL document CHEMBL3988442, “University of Dundee, Small-Polar-MMV Screening Library” (2021).